Columns and labels:
[1] = Naphthalene derivatives reacting with Fast Garnet GBC chromogenic indicator laminae in test devices (Experiment XIV); settings: naphthalene derivative lamina (from 5 mM solution) and Fast Garnet GBC lamina in test device, water added
[2] = Fast Garnet GBC indicator laminae detecting the reporter group 2-naphthylamine (Experiment I); set-up: key to Fast Garnet Color Solid Reagent: -: no red color formation; +/-: possible red color formation; +: clearly visible red color formation; ++: extremely intense red color formation; settings: for Fast Garnet Color Solid Reagent: color after 5 minutes, duplicates
[3] = Fast Garnet GBC indicator solution detecting the reporter group 2-naphthylamine (Experiment I); set-up: key to Fast Garnet Color Liquid Reagent: -: no red color formation; +/-: possible red color formation; +: clearly visible red color formation; ++: extremely intense red color formation; settings: for Fast Garnet Color Liquid Reagent: color after 5 minutes, duplicates

In the case of 6-amino-naphthalene sulfonic acid, the “COLOR SCORE” value [1] was 0.

With `Nc1ccc2ccccc2c1` [2-naphthylamine] the “Fast Garnet Color Solid Reagent” value ([2]; 0.15 µg Naphthylamine) was “-”, the “Fast Garnet Color Solid Reagent” value ([2]; 0.3 µg Naphthylamine) was “+” and the “Fast Garnet Color Solid Reagent” value ([2]; 0.6 µg Naphthylamine) was “+”. The “Fast Garnet Color Solid Reagent” value ([2]; 1.25 µg Naphthylamine) was “+”, the “Fast Garnet Color Solid Reagent” value ([2]; 2.5 µg Naphthylamine) was “+” and the “concentration that produced a clearly detectable red color, no color at lower concentrations” value ([2]; Fast Garnet GBC chromogenic indicator laminae) was 0.3 micrograms/100 microliters. For the same compound, the “Fast Garnet Color Liquid Reagent” value ([3]; 0.15 µg Naphthylamine) was “-”, the “Fast Garnet Color Liquid Reagent” value ([3]; 0.3 µg Naphthylamine) was “-” and the “Fast Garnet Color Liquid Reagent” value ([3]; 0.6 µg Naphthylamine) was “-”. The “Fast Garnet Color Liquid Reagent” value ([3]; 1.25 µg Naphthylamine) was “+”, the “Fast Garnet Color Liquid Reagent” value ([3]; 2.5 µg Naphthylamine) was “+” and the “concentration that produced a clearly detectable red color, no color at lower concentrations” value ([3]; Fast Garnet GBC chromogenic liquid reagent) was 1.25 micrograms/100 microliters.

Source: patent EP0791071B1, “ASSAY FOR PROLINE IMINOPEPTIDASE AND OTHER HYDROLYTIC ACTIVITIES” (LITMUS CONCEPTS, INC., priority 1994, dated 1996)
